# Earlier results, collected in patent publication US20100022576A1 (priority 2006, published 2010).
# Conditions: in vivo
smiles,measurement,value
Clc1ccc2c(c1)CCc1cccnc1C2=C1CCNCC1 [desloratadine],Time to mean peak plasma concentrations,≤ 3 h
